Results reported in publication PMC3562314.
These are yes or no findings as the source states them, for the method shown. Binding seen in cells or lysates may run through a third protein. Some entries that bind do so weakly or less than the wild type. Where a sequence is shown, tags or fusion partners need not be part of it.

By UniProt entry, the sequences of proteins in these tests, tags left out.
UniProt Q07812: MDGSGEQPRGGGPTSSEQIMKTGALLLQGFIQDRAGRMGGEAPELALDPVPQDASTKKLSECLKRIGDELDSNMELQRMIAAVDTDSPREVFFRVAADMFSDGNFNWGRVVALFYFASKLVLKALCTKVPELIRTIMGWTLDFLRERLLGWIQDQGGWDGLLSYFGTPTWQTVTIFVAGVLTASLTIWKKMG

Target: pro-apoptotic Bax (endogenous, 293T cells) (human (endogenous in 293T)) (UniProt Q07812)
Experiment: co-IP; 293T cells transiently transfected, treated with 100 nM STS for 3 h; lysate (1000 to 2000 µg total protein, IP lysis/wash buffer) precipitated with rabbit anti-Bax antibody coupled to AminoLink Plus resin overnight at 4°C, 3 washes; blots with anti-myc or anti-αA/αB-crystallin and anti-Bax

B1: myc-tagged mouse αB-crystallin (pWPI_αB) (protein, UniProt P23927 1-175)
chain: MDIAIHHPWIRRPFFPFHSPSRLFDQFFGEHLLESDLFSTATSLSPFYLRPPSFLRAPSWIDTGLSEMRLEKDRFSVNLDVKHFSPEELKVKVLGDVIEVHGKHEERQDEHGFISREFHRKYRIPADVDPLTITSSLSSDGVLTVNGPRKQVSGPERTIPITREEKPAVAAAPKK
**Q.** How did the binding turn out when B1 was run?
**A.** binds
